Measurements from patent publication US20170362330A1.
No constants are given. Whether binding was seen depends on the method and setting. Some entries that bind do so weakly or less than the wild type.

Amino acid sequences for entries named in this document (tags omitted). Residues count along the entry.
UniProt P15529, residues 35-159: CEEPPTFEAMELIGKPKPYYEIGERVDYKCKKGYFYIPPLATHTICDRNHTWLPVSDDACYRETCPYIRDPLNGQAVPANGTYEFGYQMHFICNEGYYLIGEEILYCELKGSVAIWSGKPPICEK

Biological target: recombinant Fc fusion protein composed of the Sushi domain 1 and 2 of human CD46 (human) (UniProt P15529)
Assay: phage and yeast display selection and FACS screening with recombinant CD46-Fc fusion

B1: YS5v1D (antibody, V domains shown)
VH: QVQLVQSGGGVVQPGRSLRLACAASGFTVNNYAMHWVRQAPGKGLEWVAVISYDGNNKYYADSVKGRFTISRDNSKNTLYLQMNSLRAEDTAVYYCAKGGGYFDLWGRGTLVTVSS
VL: QSVLTQPPSVSGAPGQRVTISCTGSSSNIGAGYDVHWYQQLPGTAPKLLIYGDNNRPSGVPDRFSGSKSGTSASLAITGLQAEDEADYYCSSYTSGTWLFGGGTKLTVL
For B1, the binding was “binds”.
